PubChem BioAssay AID686937, Drosophila RNAi Screening Center | 2013
The deposit covers about 23,000 reagents; shown is a random part of those with a known target gene and a result. 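Reduced-secretion tags in replicate 1 do not always agree with the z-scores; no criterion for assigning the tags was given.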 Names joined by + are all predicted targets of the reagent. Reagent sequences are not shown. The record does not give: the amount of reagent.

Test: 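Genes whose loss weakens secretory pathway function in fly cells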 (primary screen)
System: Drosophila S2 cells expressing secreted horseradish peroxidase
Knock-down reagent: long dsRNA against Drosophila genes
Timing: about 5.5 days (5 days dsRNA, then 12 h reporter induction)
Challenge: reporter expression induced after 5 days of dsRNA, read 12 h later; inducer not stated
Measured: 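Chemiluminescent measurement of peroxidase in the medium 12 h after reporter induction, following 5 days of dsRNA, given as a z-score per plate; higher means more secretion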
Direction: z-score: higher = more reporter secreted into medium

no.	target gene	DRSC id	z-score, replicate 1	z-score, replicate 2	z-score, replicate 3	z-score, replicate 4	phenotype, replicate 1
1	CG9389 (GeneID 40347)	DRSC11857	0.37	0.22			
2	mbo (GeneID 41562)	DRSC16123	0.07	-0.09			
3	Or33a (GeneID 34601)	DRSC03386	0.6	0.5			
4	CG43254 (GeneID 12798054)	DRSC12638	-0.09	0.08			
5	Fatp2 (GeneID 37657)	DRSC03971	-2.32	0.3	-0.04	-0.28	reduced secretion
6	Fatp2 (GeneID 37657)	DRSC04178	0.18	0.28			
7	Fatp2 (GeneID 37657)	DRSC04330	0.13	0.17			
8	CG14082 (GeneID 40088)	DRSC10086	0.53	0.45			
9	dre4 (GeneID 38248)	DRSC08714	-0.05	-0.07			
10	ETHR (GeneID 42523)	DRSC15915	0.45	0.23			
11	h-cup (GeneID 41879)	DRSC15973	0	0.15			
12	Atg16 (GeneID 326115)	DRSC15052	-0.22	0.18			
13	Atg16 (GeneID 326115)	DRSC15300	0.25	-0.05			
14	Atg16 (GeneID 326115)	DRSC15375	-0.06	-0.65			
15	CG12099 (GeneID 38181)	DRSC08253	-3.19	0.59			reduced secretion
16	Cul2 (GeneID 35420)	DRSC03710	0.29	0.26			
17	CG30192 (GeneID 246510)	DRSC03977	0.78	-3.13			
18	puf (GeneID 42935)	DRSC15875	-0.07	0.26			
19	CG9016 (GeneID 33822)	DRSC03127	0.1	0.21			
20	CG4660 (GeneID 31542)	DRSC18378	0.29	0.25			
21	Cad88C (GeneID 41774)	DRSC15486	0.16	0.51			
22	CG4049 (GeneID 37860)	DRSC04443	0.21	0.01			
23	parvin (GeneID 32990)	DRSC19468	0.44	0.59			
24	Ant2 (GeneID 32008)	DRSC19330	0.31	0.32			
25	Ssrp (GeneID 37767)	DRSC04658	0.15	-0.56			
26	Hacd1 (GeneID 34614)	DRSC02988	-0.07	0.21			
27	CG10171 (GeneID 39501)	DRSC09711	0.06	0.21			
28	CG14759 (GeneID 35803)	DRSC06494	0.38	0.35			
29	PGRP-LC (GeneID 39063)	DRSC08980	0.09	0.36			
30	PGRP-LC (GeneID 39063)	DRSC10416	0.53	0.6			
31	PGRP-LC (GeneID 39063)	DRSC10417	0.52	0.37			
32	Ddrgk1 (GeneID 42516)	DRSC15897	0.34	0.18			
33	CG43127 (GeneID 8673982)	DRSC09039	0.27	0.3			
34	TpnC73F (GeneID 39916)	DRSC11307	0.3	-0.38			
35	rdgC (GeneID 40224)	DRSC11387	0.64	0.55			
36	Cdc7 (GeneID 31598)	DRSC18428	0.4	0.73	0.71	0.6	
37	Cdc7 (GeneID 31598)	DRSC18429	0.36	0.22			
38	Cdc7 (GeneID 31598)	DRSC22133	0.63	0.72			
39	CG5984 (GeneID 43281)	DRSC15930	0.12	0.32			
40	D2hgdh (GeneID 31184)	DRSC18577	0.04	0.01			
41	galectin (GeneID 33162)	DRSC00305	0.35	0.45			
42	thoc5 (GeneID 37810)	DRSC04327	-0.08	0.05			
43	Vha100-2 (GeneID 42216)	DRSC14152	0.5	0.47			
44	Sin3A (GeneID 36382)	DRSC07552	-1.91	-2.68			reduced secretion
45	sei (GeneID 37843)	DRSC04713	0.14	0.14			
46	IntS14 (GeneID 33300)	DRSC00668	0.28	0.53			
47	CG32148 (GeneID 251924)	DRSC09338	-0.32	-0.06			
48	Neurochondrin (GeneID 40796)	DRSC12580	0.22	0.2			
49	Cht7 + tRNA:Cys-GCA-1-4 + tRNA:Lys-CTT-1-13	DRSC08021	0.68	0.24	0.18	0.45	
50	CG8306 (GeneID 36857)	DRSC07141	0.04	0.31			
51	GEFmeso (GeneID 37134)	DRSC06748	0.27	0.36			
52	GEFmeso (GeneID 37134)	DRSC06940	0.48	0.42			
53	GEFmeso (GeneID 37134)	DRSC21475	-0.03	-0.64			
54	CG32750 (GeneID 326238)	DRSC18848	0.31	0.47			
55	ics (GeneID 34774)	DRSC01878	0.52	0.28			
56	JMJD6 (GeneID 42616)	DRSC15787	-0.04	0.18			
57	Sec61beta (GeneID 46080)	DRSC07548	0.37	0.17	-1.85	-1.08	reduced secretion
58	Sec61beta (GeneID 46080)	DRSC21512	-2.9	-2.54			reduced secretion
59	Kif3C (GeneID 43820)	DRSC17209	0.22	0.35			
60	Kif3C (GeneID 43820)	DRSC17210	0.52	0.42			
61	RhoU (GeneID 31945)	DRSC17635	0.46	0.16			
62	RhoU (GeneID 31945)	DRSC17803	-0.12	-0.2			
63	RhoU (GeneID 31945)	DRSC17804	0.4	0.3	0.43	0.09	
64	RhoU (GeneID 31945)	DRSC22159	-0.64	-0.23			
65	RhoU (GeneID 31945)	DRSC22396	-2.37	-0.51			reduced secretion
66	CG5592 (GeneID 38662)	DRSC10524	0.51	0.41			
67	CG5021 (GeneID 39025)	DRSC10469	-0.13	-0.28			
68	SA2 (GeneID 38167)	DRSC08385	0.47	0.15			
69	GluRIIC (GeneID 33275)	DRSC00642	0.22	0.49			
70	kat-60L1 (GeneID 40715)	DRSC12184	0.2	0.19			
71	CG13010 (GeneID 32643)	DRSC19529	-0.16	0.06			
72	CG13331 (GeneID 36503)	DRSC06366	0.39	0.42			
73	Pdcd4 (GeneID 32337)	DRSC19360	0.4	0.67			
74	SMSr (GeneID 38823)	DRSC10998	0.29	0.33			
75	SMSr (GeneID 38823)	DRSC10999	0.19	0.32			
76	Arf4 (GeneID 43823)	DRSC17195	-5.2	-4.62			reduced secretion
77	Alg1 (GeneID 42146)	DRSC15297	0.18	0			
78	CG7208 (GeneID 42172)	DRSC16212	0.41	0.46			
79	Jon66Ci (GeneID 38952)	DRSC10772	0.13	0.4			
80	CR1075 (GeneID 12798037)	DRSC12144	0.06	0.27			
81	CG3744 (GeneID 42972)	DRSC15511	0.44	0.13			
82	CG4830 (GeneID 41477)	DRSC15657	0.67	0.51			

In a second layout: entries from further up
{"target gene": "PGRP-LC (GeneID 39063)", "DRSC id": "DRSC10416", "z-score, replicate 1": 0.53, "z-score, replicate 2": 0.6}
{"target gene": "PGRP-LC (GeneID 39063)", "DRSC id": "DRSC10417", "z-score, replicate 1": 0.52, "z-score, replicate 2": 0.37}
{"target gene": "Ddrgk1 (GeneID 42516)", "DRSC id": "DRSC15897", "z-score, replicate 1": 0.34, "z-score, replicate 2": 0.18}
{"target gene": "CG43127 (GeneID 8673982)", "DRSC id": "DRSC09039", "z-score, replicate 1": 0.27, "z-score, replicate 2": 0.3}
{"target gene": "TpnC73F (GeneID 39916)", "DRSC id": "DRSC11307", "z-score, replicate 1": 0.3, "z-score, replicate 2": -0.38}
{"target gene": "rdgC (GeneID 40224)", "DRSC id": "DRSC11387", "z-score, replicate 1": 0.64, "z-score, replicate 2": 0.55}
{"target gene": "Cdc7 (GeneID 31598)", "DRSC id": "DRSC18428", "z-score, replicate 1": 0.4, "z-score, replicate 2": 0.73, "z-score, replicate 3": 0.71, "z-score, replicate 4": 0.6}
{"target gene": "Cdc7 (GeneID 31598)", "DRSC id": "DRSC18429", "z-score, replicate 1": 0.36, "z-score, replicate 2": 0.22}
{"target gene": "Cdc7 (GeneID 31598)", "DRSC id": "DRSC22133", "z-score, replicate 1": 0.63, "z-score, replicate 2": 0.72}
